# Values from PubChem BioAssay AID1259424 (University of Nebraska Medical Center, 2018).
# Test: 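Find knockdowns that reproduce the expression shifts seen after KSR1 loss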 (primary screen)
# Cells: human HCT116 colon cancer cells
# Reagents: siRNA pool against human genes, 50 nM
# Detection: 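Six signature mRNAs by branched-DNA multiplex assay, scaled to two housekeeping genes and non-targeting median, log2; matched to mean KSR1 knockdown profile by Pearson correlation and euclidean distance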
# Reading the numbers: mean correlation with KSR1 profile and KSR1 correlation: higher = expression change more like KSR1 knockdown; mean distance from KSR1 profile: higher = expression change less like KSR1 knockdown
# The deposit covers about 14,000 reagents; this is an unselected part. 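Higher correlation or smaller distance means closer resemblance to KSR1 loss; control wells, including KSR1 knockdowns, recur on many plates.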 Not all columns of the deposit are shown. Not stated in the record: the time to read-out.
Target gene,mean correlation with KSR1 profile,mean distance from KSR1 profile,"KSR1 correlation, replicate 1"
KCNK16,0.575,3.5,0.373
CHID1,-0.11,3.11,-0.233
MTAP,0.332,1.8,0.26
VANGL2,0.0761,3.88,-0.00462
GPR141,0.196,2.26,0.171
SATB1,0.142,2.25,-0.0251
DKK2,0.509,1.62,0.489
LAMTOR2,0.497,1.02,0.326
APC,0.518,3.77,0.618

Copied from the listing (2 entries):
Target gene,mean correlation with KSR1 profile,mean distance from KSR1 profile,"KSR1 correlation, replicate 1"
DKK2,0.509,1.62,0.489
LAMTOR2,0.497,1.02,0.326

Next results:
Target gene,mean correlation with KSR1 profile,mean distance from KSR1 profile,"KSR1 correlation, replicate 1"
SMAD4,-0.156,2.36,0.145
H4C4,0.127,1.17,-0.231
ZNF212,0.0247,1.73,0.157
HAUS5,0.408,2.9,0.416
POLRMT,-0.399,2.87,-0.234
DPYSL3,-0.35,2.19,-0.445
IL36A,0.61,1.75,0.597
HLA-DMA,0.784,0.839,0.832
TTC29,0.16,1.51,0.053
ANGPTL2,-0.0272,2.62,0.0448
RNPS1,0.742,3.18,0.676
